PMC5986797, “Laminin heparin-binding peptides bind to several growth factors and enhance diabetic wound healing” (Nature Communications, 2018)
Results are given in words; binding and its absence hold for the method and conditions named. A result given as binding can be weak or reduced; the word gives no strength. Blank lines part the entries; values can stand above or below the binder they belong to.

Protein sequences, listed by entry. Tags and fused reporters are not part of them. Lines headed by an entry give the natural chain unless they say otherwise; changes in a name come on top.
UniProt Q16363: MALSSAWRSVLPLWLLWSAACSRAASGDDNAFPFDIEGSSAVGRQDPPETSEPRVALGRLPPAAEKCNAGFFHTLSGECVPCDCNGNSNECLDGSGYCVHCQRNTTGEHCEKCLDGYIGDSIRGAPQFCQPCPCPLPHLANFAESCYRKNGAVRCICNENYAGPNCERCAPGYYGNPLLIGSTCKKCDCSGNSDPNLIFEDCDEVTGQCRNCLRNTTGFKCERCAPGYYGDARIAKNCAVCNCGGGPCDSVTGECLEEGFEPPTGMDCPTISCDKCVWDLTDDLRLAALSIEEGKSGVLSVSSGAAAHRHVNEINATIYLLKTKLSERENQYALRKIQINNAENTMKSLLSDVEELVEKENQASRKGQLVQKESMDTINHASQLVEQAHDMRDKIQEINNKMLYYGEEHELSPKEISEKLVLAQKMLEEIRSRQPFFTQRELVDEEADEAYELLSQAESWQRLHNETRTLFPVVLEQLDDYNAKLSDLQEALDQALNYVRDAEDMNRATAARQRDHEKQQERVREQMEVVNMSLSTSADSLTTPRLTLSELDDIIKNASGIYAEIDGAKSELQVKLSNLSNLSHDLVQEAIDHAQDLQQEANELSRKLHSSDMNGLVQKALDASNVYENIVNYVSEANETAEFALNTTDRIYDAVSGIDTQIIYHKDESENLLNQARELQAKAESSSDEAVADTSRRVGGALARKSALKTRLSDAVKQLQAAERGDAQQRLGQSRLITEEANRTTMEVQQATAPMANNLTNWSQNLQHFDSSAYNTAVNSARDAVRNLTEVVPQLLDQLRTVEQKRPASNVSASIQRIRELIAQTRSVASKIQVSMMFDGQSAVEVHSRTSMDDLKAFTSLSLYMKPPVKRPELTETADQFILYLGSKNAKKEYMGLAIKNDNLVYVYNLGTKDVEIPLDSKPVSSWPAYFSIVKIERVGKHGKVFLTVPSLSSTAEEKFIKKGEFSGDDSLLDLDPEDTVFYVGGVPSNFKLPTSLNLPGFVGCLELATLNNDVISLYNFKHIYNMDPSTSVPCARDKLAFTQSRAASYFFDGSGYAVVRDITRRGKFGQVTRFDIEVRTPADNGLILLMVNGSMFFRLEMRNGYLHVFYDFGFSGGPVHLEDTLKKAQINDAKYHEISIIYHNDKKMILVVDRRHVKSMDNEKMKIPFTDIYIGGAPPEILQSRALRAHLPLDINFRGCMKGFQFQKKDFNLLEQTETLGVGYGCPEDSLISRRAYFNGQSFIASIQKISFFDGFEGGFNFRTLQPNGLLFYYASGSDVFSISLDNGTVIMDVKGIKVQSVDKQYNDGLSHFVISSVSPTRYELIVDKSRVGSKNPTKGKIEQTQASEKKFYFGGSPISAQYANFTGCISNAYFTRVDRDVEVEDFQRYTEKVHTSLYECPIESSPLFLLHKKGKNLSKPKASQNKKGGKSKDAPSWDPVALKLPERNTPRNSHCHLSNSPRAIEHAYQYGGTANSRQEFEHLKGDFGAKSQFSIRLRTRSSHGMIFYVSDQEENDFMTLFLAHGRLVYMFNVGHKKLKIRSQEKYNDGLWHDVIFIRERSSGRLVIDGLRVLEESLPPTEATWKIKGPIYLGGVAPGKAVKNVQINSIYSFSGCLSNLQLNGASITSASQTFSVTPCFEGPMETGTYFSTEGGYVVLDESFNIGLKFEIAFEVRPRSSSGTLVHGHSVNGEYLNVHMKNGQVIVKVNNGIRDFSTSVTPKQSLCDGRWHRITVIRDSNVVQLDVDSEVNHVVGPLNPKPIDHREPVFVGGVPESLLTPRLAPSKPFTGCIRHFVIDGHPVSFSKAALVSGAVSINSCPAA

Molecular target: laminin alpha 4 LG domain recombinant protein LAMA4_(826–1816) (human) (UniProt Q16363)
Assay: ELISA; plates coated with 1 μg/mL recombinant laminin LG domain; 1 μg/mL GF added; bound GF detected with an antibody for each GF; BSA-coated wells as control; both purified

binding: no binding (tested: 1 μg/mL)
B1: PlGF-1 (ligand, UniProt P49763-2 19-149)
chain: LPAVPPQQWALSAGNGSSEVEVVPFQEVWGRSYCRALERLVDVVSEYPSEVEHMFSPSCVSLLRCTGCCGDENLHCVPVETANVTMQLLKIRSGDRPSYVELTFSQHVRCECRPLREKMKPERCGDAVPRR

binding: binds
B2: placental growth factor (PlGF)-2 (ligand, UniProt P49763-3 19-170)
chain: LPAVPPQQWALSAGNGSSEVEVVPFQEVWGRSYCRALERLVDVVSEYPSEVEHMFSPSCVSLLRCTGCCGDENLHCVPVETANVTMQLLKIRSGDRPSYVELTFSQHVRCECRPLREKMKPERRRPKGRGKRRREKQRPTDCHLCGDAVPRR
